± gives the standard deviation of the averaged measurements. Most entries show no effect beyond the scatter of the controls.
Columns and labels:
Test in all cases: level (log10 ratio to DMSO vehicle control); higher = higher biomarker level / cell amount than vehicle control
[1] = compound: C=C(C)C(=O)OCC(F)(F)C(F)(F)C(F)(F)C(F)(F)C(F)(F)C(F)(F)C(F)(F)F; settings: in DMSO
Protocol: (§1)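 BioMAP Diversity Plus panel of 12 human primary cell co-culture systems (3C, 4H, LPS, SAg, BT, BF4T, BE3C, CASM3C, HDF3CGF, KF3CT, MyoF, Mphg). Compounds were added 1 h before stimulation and left for 24 h (MyoF 48 h; BT 72 h for soluble read-outs or 6 d for IgG). Biomarkers were read by ELISA, cytotoxicity by SRB, PBMC viability and proliferation by Alamar Blue. Each well value was divided by the mean of 8 DMSO control wells on the same plate and log10 transformed; duplicate blinded samples were tested at 4 concentrations.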

[2] = compound: C=CC(=O)OCC(F)(F)C(F)(F)C(F)(F)C(F)(F)C(F)(F)C(F)(F)C(F)(F)F [1H,1H-Perfluorooctyl acrylate]; settings: 2200 nM; in DMSO
Protocol: as §1

[3] = compound: C=CC(F)(F)C(F)(F)C(F)(F)C(F)(F)C(F)(F)C(F)(F)C(F)(F)C(F)(F)C=C [1,8-Divinylperfluorooctane]; settings: in DMSO
Protocol: as §1

[4] = compound: COC(=O)C(F)(F)C(F)(F)OC(F)(C(F)(F)F)C(F)(F)OC(F)=C(F)F [Methyl perfluoro(3-(1-ethenyloxypropan-2-yloxy)propanoate)]; settings: in DMSO
Protocol: as §1

[5] = compound: CO[Si](C)(CCC(F)(F)C(F)(F)C(F)(F)C(F)(F)C(F)(F)C(F)(F)F)OC [Dimethoxymethyl((perfluorohexyl)ethyl)silane]; settings: in DMSO
Protocol: as §1

[6] = compound: FC(F)(F)C(F)(F)C(F)(F)CC1CO1 [1H,1H-Heptafluorobutyl epoxide]; settings: 2200 nM; in DMSO
Protocol: as §1

[7] = compound: FC(F)(F)C(F)(F)C(F)(F)CI [Heptafluorobutyl iodide]; settings: 2200 nM; in DMSO
Protocol: as §1

[8] = compound: NC(=O)C(F)(F)C(F)(F)C(F)(F)C(F)F; settings: in DMSO
Protocol: as §1

[9] = compound: NC(=O)C(F)(F)C(F)(F)F [Pentafluoropropionamide]; settings: 2200 nM; in DMSO
Protocol: as §1

[10] = compound: NS(=O)(=O)C(F)(F)C(F)(F)C(F)(F)C(F)(F)C(F)(F)C(F)(F)C(F)(F)C(F)(F)F [Perfluorooctanesulfonamide]; settings: in DMSO
Protocol: as §1

[11] = compound: O=C(O)C(F)(F)C(F)(F)C(F)F [4H-Perfluorobutanoic acid]; settings: in DMSO
Protocol: as §1

[12] = compound: O=P(O)(O)CCC(F)(F)C(F)(F)C(F)(F)C(F)(F)C(F)(F)C(F)(F)F [2-(Perfluorohexyl)ethylphosphonic acid]; settings: 2200 nM; in DMSO
Protocol: as §1

[13] = compound: O=S(=O)(F)C(F)(F)C(F)(F)C(F)(F)C(F)(F)C(F)(F)C(F)(F)C(F)(F)C(F)(F)F [Perfluorooctanesulfonyl fluoride]; settings: 2200 nM; in DMSO
Protocol: as §1

[14] = compound: O=S(=O)(O)C(F)(F)C(F)(F)C(F)(F)C(F)(F)C(F)(F)C(F)(F)C(F)(F)C(F)(F)F [Perfluorooctanesulfonic acid]; settings: 2200 nM; in DMSO
Protocol: as §1

[15] = compound: O=S(=O)(O)C(F)(F)C(F)(F)C(F)(F)C(F)(F)C(F)(F)C(F)(F)C(F)(F)C(F)(F)F [Potassium perfluorooctanesulfonate]; settings: 2200 nM; in DMSO
Protocol: as §1

[16] = compound: O=S(=O)(OCC(F)(F)F)C(F)(F)C(F)(F)C(F)(F)C(F)(F)F [2,2,2-Trifluoroethyl perfluorobutanesulfonate]; settings: 2200 nM; in DMSO
Protocol: as §1

[17] = compound: OCC(F)(F)C(F)(F)C(F)(F)C(F)(F)C(F)(F)C(F)F [1H,1H,7H-Dodecafluoro-1-heptanol]; settings: 2200 nM; in DMSO
Protocol: as §1

[18] = compound: OCCCCC(F)(F)C(F)(F)C(F)(F)C(F)(F)F [4:4 Fluorotelomer alcohol]; settings: 2200 nM; in DMSO
Protocol: as §1

| Test System | level (log10) ([1]; 740 nM) | level (log10) ([1]; 2200 nM) | level (log10) [2] | level (log10) ([3]; 740 nM) | level (log10) ([3]; 2200 nM) | level (log10) ([4]; 740 nM) | level (log10) ([4]; 2200 nM) | level (log10) ([5]; 740 nM) | level (log10) ([5]; 2200 nM) | level (log10) [6] | level (log10) [7] | level (log10) ([8]; 2200 nM) | level (log10) ([8]; 6700 nM) | level (log10) ([8]; 20000 nM) | level (log10) ([8]; 60000 nM) | level (log10) [9] | level (log10) ([10]; 2200 nM) | level (log10) ([10]; 6700 nM) | level (log10) ([10]; 20000 nM) | level (log10) ([11]; 2200 nM) | level (log10) ([11]; 6700 nM) | level (log10) ([11]; 20000 nM) | level (log10) ([11]; 60000 nM) | level (log10) [12] | level (log10) [13] | level (log10) [14] | level (log10) [15] | level (log10) [16] | level (log10) [17] | level (log10) [18] |
| --- | --- | --- | --- | --- | --- | --- | --- | --- | --- | --- | --- | --- | --- | --- | --- | --- | --- | --- | --- | --- | --- | --- | --- | --- | --- | --- | --- | --- | --- | --- |
| CASM3C:Proliferation | -0.053 ± 0.044 | 0.0265 ± 0.0064 | -0.003 ± 0.037 | -0.0385 ± 0.018 | -0.0595 ± 0.12 | -0.014 ± 0.048 | -0.0115 ± 0.0078 | 0.0075 ± 0.032 | 0.0325 ± 0.016 | -0.0715 ± 0.061 | 0.0175 ± 0.013 | -0.0155 ± 0.081 | 0.002 ± 0.071 | -0.0145 ± 0.023 | 0.014 ± 0.025 | -0.0195 ± 0.013 | -0.0155 ± 0.071 | -0.027 ± 0.0085 | 0.0415 ± 0.032 | 0.022 ± 0.033 | 0.0045 ± 0.011 | -0.0185 ± 0.066 | 0.0045 ± 0.04 | -0.0445 ± 0.021 | -0.0105 ± 0.0021 | 0.0035 ± 0.0035 | -0.007 ± 0.0099 | -0.008 ± 0.0085 | 0.007 ± 0.0042 | -0.004 ± 0.033 |
| lMphg:CCL3/MIP-1alpha | 0.024 ± 0.047 | -0.014 ± 0.02 | 0.01 ± 0.025 | 0.0075 ± 0.036 | -0.0295 ± 0.0092 | 0.015 ± 0.03 | 0.0155 ± 0.0064 | 0.0195 ± 0.0092 | -0.0165 ± 0.0021 | -0.014 ± 0.031 | 0.032 ± 0.034 | 0 ± 0.0057 | -0.039 ± 0.0099 | -0.0295 ± 0.018 | -0.006 ± 0.0028 | 0.0225 ± 0.025 | 0.001 ± 0.033 | -0.003 ± 0.016 | 0.023 ± 0.0099 | 0.025 ± 0.034 | -0.0075 ± 0.037 | 0.004 ± 0.016 | 0.0235 ± 0.011 | -0.005 ± 0.027 | 0.018 ± 0.041 | -0.003 ± 0.0085 | 0.022 ± 0.0014 | -0.0275 ± 0.047 | 0.051 ± 0.073 | 0.0165 ± 0.023 |
| 4H:CD87/uPAR | 0 ± 0.011 | -0.015 ± 0.0057 | 0.0025 ± 0.046 | 0.0095 ± 0.022 | -0.029 ± 0.027 | 0.006 ± 0.086 | 0.0005 ± 0.019 | 0.014 ± 0.045 | -0.0105 ± 0.021 | -0.042 ± 0.095 | 0.0145 ± 0.00071 | 0.0305 ± 0.0092 | 0.0335 ± 0.013 | 0.044 ± 0.033 | 0.006 ± 0.038 | 0.0095 ± 0.023 | 0.037 ± 0.0071 | 0.0155 ± 0.0064 | -0.026 ± 0.028 | -0.0095 ± 0.011 | -0.0265 ± 0.025 | -0.0065 ± 0.0035 | -0.004 ± 0.044 | -0.0315 ± 0.013 | 0.0195 ± 0.052 | 0.079 ± 0.069 | 0.0605 ± 0.057 | 0.0175 ± 0.037 | -0.0175 ± 0.033 | -0.0195 ± 0.012 |
| lMphg:CCL2/MCP-1 | 0.0185 ± 0.052 | -0.0135 ± 0.03 | 0.002 ± 0.034 | 0.0055 ± 0.035 | -0.004 ± 0.011 | -0.013 | -0.006 ± 0.024 | -0.003 ± 0.024 | -0.019 ± 0.0014 | 0.004 ± 0.018 | 0.0025 ± 0.015 | 0.0205 ± 0.054 | 0.004 | -0.0065 ± 0.012 | 0.0255 ± 0.018 | 0.015 ± 0.027 | 0.001 ± 0.068 | -0.032 ± 0.016 | -0.0485 ± 0.046 | -0.01 ± 0.044 | -0.024 ± 0.027 | -0.0125 ± 0.0035 | 0.0005 ± 0.021 | 0.0175 ± 0.029 | -0.0165 ± 0.016 | 0.0055 ± 0.023 | 0.0135 ± 0.016 | -0.0175 ± 0.021 | 0.016 ± 0.057 | -0.005 ± 0.048 |
| MyoF:MMP-1 | 0.028 ± 0.13 | -0.0035 ± 0.071 | -0.0055 ± 0.05 | 0.011 ± 0.11 | -0.056 ± 0.011 | 0.0195 ± 0.074 | -0.0065 ± 0.015 | -0.0165 ± 0.015 | -0.011 ± 0.025 | 0.0355 ± 0.037 | -0.001 ± 0.018 | 0 ± 0.075 | -0.018 ± 0.038 | -0.034 ± 0.02 | 0.014 ± 0.028 | 0.0225 ± 0.11 | -0.002 ± 0.099 | -0.038 ± 0.013 | 0.0955 ± 0.04 | 0.0125 ± 0.016 | -0.0355 ± 0.07 | -0.07 ± 0.054 | 0.022 ± 0.044 | 0.0305 ± 0.079 | 0.0105 ± 0.03 | -0.011 ± 0.044 | 0.0085 ± 0.076 | 0.043 ± 0.048 | 0.0355 ± 0.07 | 0.038 ± 0.067 |
| BE3C:CXCL11/I-TAC | 0.001 ± 0.0014 | 0.0025 ± 0.029 | 0.024 ± 0.018 | -0.0045 ± 0.0035 | -0.0045 ± 0.0092 | 0.0305 ± 0.012 | 0.004 ± 0.013 | 0.0015 ± 0.019 | -0.007 ± 0.0042 | -0.0145 ± 0.0021 | 0.011 ± 0.017 | 0 ± 0.014 | 0.005 ± 0.0028 | -0.002 ± 0.0042 | 0.002 ± 0.0057 | 0.003 ± 0.0099 | -0.02 ± 0.011 | -0.0565 ± 0.013 | -0.183 ± 0.06 | 0.01 ± 0.0057 | -0.0015 ± 0.0064 | 0.008 ± 0.014 | 0.031 ± 0.011 | 0.004 ± 0.027 | 0.0095 ± 0.005 | -0.0195 ± 0.005 | -0.0165 ± 0.00071 | -0.002 | 0.011 ± 0.034 | -0.006 ± 0.02 |
| HDF3CGF:CD106/VCAM-1 | -0.046 ± 0.051 | -0.0125 ± 0.0064 | -0.051 ± 0.072 | -0.0455 ± 0.032 | 0.0035 ± 0.0092 | -0.0645 ± 0.044 | -0.0695 ± 0.019 | -0.017 ± 0.042 | -0.01 ± 0.0042 | 0.0235 ± 0.005 | 0.0595 ± 0.0064 | -0.0345 ± 0.023 | -0.0285 ± 0.019 | -0.014 ± 0.024 | -0.04 ± 0.078 | -0.0415 ± 0.046 | -0.047 ± 0.078 | -0.147 ± 0.027 | -0.364 ± 0.023 | -0.0535 ± 0.026 | -0.0385 ± 0.018 | -0.0525 ± 0.022 | -0.0445 ± 0.096 | 0.0145 ± 0.018 | -0.0395 ± 0.056 | -0.0505 ± 0.015 | -0.0505 ± 0.0078 | -0.018 ± 0.0028 | 0.007 ± 0.0085 | -0.027 ± 0.09 |
